Laboratory results: paper PMC7862700
The list shows a part of the results, in another mix than the full data. For part of these data: At the low end of the ranking the order means little.

Chains of the proteins cited; added tags and fusions are not shown. Lines headed by an entry give the natural chain unless they say otherwise; changes in a name come on top.
UniProt O43186: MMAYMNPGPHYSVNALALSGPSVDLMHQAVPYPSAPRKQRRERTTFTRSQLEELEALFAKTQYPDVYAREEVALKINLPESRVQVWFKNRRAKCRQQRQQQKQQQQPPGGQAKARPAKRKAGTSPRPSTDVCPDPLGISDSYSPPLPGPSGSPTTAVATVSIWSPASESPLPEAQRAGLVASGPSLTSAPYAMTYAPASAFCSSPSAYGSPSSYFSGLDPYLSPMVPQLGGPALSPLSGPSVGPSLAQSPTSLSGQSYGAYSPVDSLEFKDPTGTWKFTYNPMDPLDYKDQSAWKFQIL

target: T1, FEV (UniProt Q99581); experiment: DAPPL (digital affinity profiling via proximity ligation, sequencing); conditions: 10 mM Tris-HCl pH 7.5, 50 mM NaCl, 1 mM DTT, 4% glycerol, room temperature, 30 min; GST-TFs on glutathione beads, 16-mer random dsDNA library, 0.1% …; high values mean tight binding; double strand, one strand shown; scale: fold enrichment (6-mer frequency, TF over GST control)
T1 sequence: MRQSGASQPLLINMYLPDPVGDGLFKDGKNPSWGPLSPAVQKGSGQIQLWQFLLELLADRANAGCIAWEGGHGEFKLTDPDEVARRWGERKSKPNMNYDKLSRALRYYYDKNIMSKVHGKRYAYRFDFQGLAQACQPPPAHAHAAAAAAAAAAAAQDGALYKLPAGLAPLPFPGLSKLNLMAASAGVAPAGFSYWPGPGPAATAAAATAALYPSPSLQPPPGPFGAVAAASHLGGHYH

Sequence | binding signal
AATGGG | 1.25
GCGACT | 1.31
ATACAA | 1.09
TAAGAT | 1.15
AAATGG | 1.42
AATTAG | 1.07

target: CRX (UniProt O43186); experiment: as above; conditions: 10 mM Tris-HCl pH 7.5, 50 mM NaCl, 1 mM DTT, 4% glycerol, room temperature, 30 min; GST-TFs on glutathione beads, 16-mer random dsDNA library, 0.1% …; high values mean tight binding; double strand, one strand shown; scale: fold enrichment (6-mer frequency, TF over GST control)

Sequence | binding signal
AATGGG | 0.952
GCGACT | 1.14
ATACAA | 1.07
TAAGAT | 2.49
AAATGG | 1.22
AATTAG | 1.69

target: T2, ELF5 (UniProt Q9UKW6-2); experiment: as above; conditions: 10 mM Tris-HCl pH 7.5, 50 mM NaCl, 1 mM DTT, 4% glycerol, room temperature, 30 min; GST-TFs on glutathione beads, 16-mer random dsDNA library, 0.1% …; high values mean tight binding; double strand, one strand shown; scale: fold enrichment (6-mer frequency, TF over GST control)
T2 sequence: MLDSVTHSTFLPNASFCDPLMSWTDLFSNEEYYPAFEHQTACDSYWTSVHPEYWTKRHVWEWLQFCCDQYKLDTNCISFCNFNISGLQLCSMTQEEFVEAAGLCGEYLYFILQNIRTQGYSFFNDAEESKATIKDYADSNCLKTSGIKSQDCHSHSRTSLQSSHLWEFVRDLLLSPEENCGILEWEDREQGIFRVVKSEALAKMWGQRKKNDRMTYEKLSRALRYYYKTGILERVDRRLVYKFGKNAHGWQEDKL

Sequence | binding signal
AAGCGA | 1.07
TCGCTC | 1.25
ATTCCG | 2.17
TGTTCT | 1.37
ATTGCC | 1.22
TAATGA | 1.12
TTTTGA | 1
TTATGA | 1.09
CAGCTT | 1.11
CTGAGC | 0.908
GATTTT | 1.13
CGCCTC | 1.43
AGCCCC | 1.01
CAAAAC | 1.25
CCCCCA | 1.24
CATACT | 1.27
CCTGGA | 1.74

Reprinted at random: 2 records from the list
Sequence | binding signal
AAGCGA | 1.07
ATTCCG | 2.17

The list continues.

Sequence | binding signal
TACTGC | 1.17
GCTTTG | 1.13
GTATTT | 1.62
ATCGAA | 1.05
TAGCCC | 1.07
GAACTC | 1.32
GAATTC | 1.32
CTTCTG | 1.39
CGATTG | 1.11
TTGCAC | 1.22
AAGTTT | 1.55
TCTGCC | 1.31
GTTTAC | 1.13
CTTGGG | 1.19
CGAAAC | 1.12
ACATCC | 3.25
